Test results reported in paper PMC10989010, “A panel of janus kinase inhibitors identified with anti-inflammatory effects protect mice from lethal influenza virus infection” (Antimicrobial Agents and Chemotherapy, 2024).
Structures can show the parent of a compound that is named as a salt. Where two headings read alike, the source gives them in different places.

Legend:
MCP1 = test: cells; format: cell-based, human; details: read-out: IC50 MCP1
IL-8 = test: U937 cell-based anti-inflammatory assay for influenza virus infection, IL-8 production (AlphaLISA); parameters: species or system human; details: read-out: IC50 IL-8, U937 cells infected with PR8 virus, 72 hours, mean of three independent experiments
Procedure: U937 cells were seeded in a 96-well culture plate at a density of 1.5 × 10^5 cells per well and incubated for 24 hours prior to virus infection. Subsequently, the cells in each well were infected with the PR8 virus at a multiplicity of infection of 0.05 and treated with serially diluted drugs or left untreated as a control. The drugs were serially diluted threefold, starting from an initial concentration of 200 µM down to 0.01 µM. […] Following this incubation, the supernatants were collected and subjected to AlphaLISA analysis to determine IL-8, IP-10, and MCP1 protein levels.
The AlphaLISA detection kits employed in this study were IL-8 (PerkinElmer AL224), IP-10 (PerkinElmer AL259), and MCP1 (PerkinElmer, AL244). U937 cell culture supernatants were measured for IL-8, IP-10, and MCP-1 protein levels using AlphaLISA assay as per the manufacturer’s recommendations. The ELISA and AlphaLISA plates were read using the Varioskan LUX multimode microplate reader (Thermo Scientiﬁc, Waltham, MA, USA).

IP-10 = test: cells; format: cell-based, human; details: read-out: IC50 IP-10

Structure (SMILES) | IC50 (MCP1; Homo sapiens, U-937, 72 h) | IC50 (IL-8; Homo sapiens, U-937, 72 h) | IC50 (IP-10; Homo sapiens, U-937, 72 h) | IC50 (MCP1) | IC50 (IL-8) | IC50 (IP-10)
C[C@@H]1CCN(C(=O)CC#N)C[C@@H]1N(C)c1ncnc2[nH]ccc12 [Tofacitinib] | 50 nM | 10 nM | 20 nM | – | – | –
C[C@@H]1CCN(C(=O)CC#N)C[C@@H]1N(C)c1ncnc2[nH]ccc12 [Tofacitinib citrate] | – | – | – | 40 nM | 20 nM | 40 nM
